Source: patent publication US20200249573A1, “COMPOSITION FOR RESIST UNDERLAYER FILM FORMATION, UNDERLAYER FILM FOR LITHOGRAPHY, AND PATTERN FORMATION METHOD” (MITSUBISHI GAS CHEMICAL COMPANY, INC., priority 2016, published 2020)

Test: Etching test / evaluation of etching resistance of underlayer films against novolac underlayer film
Details: 200 nm film, Ar/CF4/O2 50:5:5 sccm, vs novolac
[1] = composition 10 parts in PGMEA (90) with DTDPI (0.5) and NIKALAC (0.5), baked at 240° C. for 60 seconds
[2] = composition 10 parts in PGMEA (90), no acid generating agent, no crosslinking agent, baked at 300° C. for 60 seconds

SMILES	Evaluation of etching resistance [1]	Evaluation of etching resistance [2]
Oc1ccc([Te](Cl)(Cl)c2ccc(O)cc2)cc1 [BHPT, bis(4-hydroxyphenyl)tellurium dichloride]	A (The etching rate was less than −10% as compared with the underlayer film of novolac.)	A (The etching rate was less than −10% as compared with the underlayer film of novolac.)
CC1(OC(=O)COc2ccc([Te](Cl)(Cl)c3ccc(OCC(=O)OC4(C)C5CC6CC(C5)CC4C6)cc3)cc2)C2CC3CC(C2)CC1C3 (stereo not drawn) [BHPT-ADBAC, bis(4-(2-methyl-2-adamantyloxycarbonylmethoxy)phenyl)tellurium dichloride]	A (The etching rate was less than −10% as compared with the underlayer film of novolac.)	A (The etching rate was less than −10% as compared with the underlayer film of novolac.)
Oc1ccc([Te](Cl)(Cl)c2ccc(O)cc2O)cc1 [CCHT, (2,4-dihydroxyphenyl) (4-hydroxyphenyl)tellurium dichloride]	A (The etching rate was less than −10% as compared with the underlayer film of novolac.)	–
CC1(OC(=O)COc2ccc([Te](Cl)(Cl)c3ccc(OCC(=O)OC4(C)C5CC6CC(C5)CC4C6)cc3OCC(=O)OC3(C)C4CC5CC(C4)CC3C5)cc2)C2CC3CC(C2)CC1C3 (stereo not drawn) [CCHT-ADBAC]	A (The etching rate was less than −10% as compared with the underlayer film of novolac.)	–
Oc1ccc([Te](Cl)(Cl)c2ccc(O)c(-c3ccccc3)c2)cc1-c1ccccc1 [Ph-BHPT, bis(3-phenyl-4-hydroxyphenyl)tellurium dichloride]	A (The etching rate was less than −10% as compared with the underlayer film of novolac.)	–
CC1(OC(=O)COc2ccc([Te](Cl)(Cl)c3ccc(OCC(=O)OC4(C)C5CC6CC(C5)CC4C6)c(-c4ccccc4)c3)cc2-c2ccccc2)C2CC3CC(C2)CC1C3 (stereo not drawn) [Ph-BHPT-ADBAC]	A (The etching rate was less than −10% as compared with the underlayer film of novolac.)	–
Oc1ccc([Te]c2ccc(O)c(-c3ccccc3)c2)cc1-c1ccccc1 [Ph-TDP, bis(3-phenyl-4-hydroxyphenyl)tellurium]	A (The etching rate was less than −10% as compared with the underlayer film of novolac.)	–
CC1(OC(=O)COc2ccc([Te]c3ccc(OCC(=O)OC4(C)C5CC6CC(C5)CC4C6)c(-c4ccccc4)c3)cc2-c2ccccc2)C2CC3CC(C2)CC1C3 (stereo not drawn) [Ph-TDP-ADBAC]	A (The etching rate was less than −10% as compared with the underlayer film of novolac.)	–
CC(C)(C)OC(=O)COc1ccc([Te]c2ccc(OCC(=O)OC(C)(C)C)c(-c3ccccc3)c2)cc1-c1ccccc1 [Ph-TDP-BOC]	A (The etching rate was less than −10% as compared with the underlayer film of novolac.)	–
CCOC(C)Oc1ccc([Te](Cl)(Cl)c2ccc(OC(C)OCC)c(-c3ccccc3)c2)cc1-c1ccccc1 (stereo not drawn) [Ph-TDP-EE]	A (The etching rate was less than −10% as compared with the underlayer film of novolac.)	–
Oc1ccc([Te]c2ccc(O)cc2)cc1 [TDP, 4,4′-telluriumdiphenol]	A (The etching rate was less than −10% as compared with the underlayer film of novolac.)	A (The etching rate was less than −10% as compared with the underlayer film of novolac.)
CC1(OC(=O)COc2ccc([Te]c3ccc(OCC(=O)OC4(C)C5CC6CC(C5)CC4C6)cc3)cc2)C2CC3CC(C2)CC1C3 (stereo not drawn) [TDP-ADBAC]	A (The etching rate was less than −10% as compared with the underlayer film of novolac.)	–
